# Measurements as given in the supplement of paper PMC8728848.
# The other results are listed elsewhere or left out.
# What was measured:
# Test in all cases: glycan array binding signal (z-score within array); higher = stronger binding
# Settings in all cases: glycan notation: IUPAC condensed, linker removed
# [1] = biological target: Gal(b1-4)GlcNAc(b1-2)Man(a1-6)[Man(a1-3)]Man(b1-4)GlcNAc(b1-4)GlcNAc
# In short: (§1)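 Columns mapping to the same glycan were averaged after glycan names were converted to IUPAC-condensed notation. The data come from 3228 arrays in the Consortium for Functional Glycomics database, limited to those with an available protein sequence. Binding is reported as a within-array Z-score averaged across arrays of one protein sequence and across linkers.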
# [2] = biological target: Gal(b1-4)GlcNAc(b1-2)[Gal(b1-4)GlcNAc(b1-4)]Man(a1-3)[Gal(b1-4)GlcNAc(b1-2)Man(a1-6)]Man(b1-4)GlcNAc(b1-4)GlcNAc
# In short: as §1
# [3] = biological target: Gal(b1-4)GlcNAc(b1-2)[Gal(b1-4)GlcNAc(b1-4)]Man(a1-3)[Gal(b1-4)GlcNAc(b1-2)[Gal(b1-4)GlcNAc(b1-6)]Man(a1-6)]Man(b1-4)GlcNAc(b1-4)GlcNAc
# In short: as §1
# [4] = biological target: Gal(b1-4)GlcNAc(b1-2)[Gal(b1-4)GlcNAc(b1-4)]Man(a1-3)[GlcNAc(b1-4)][Gal(b1-4)GlcNAc(b1-2)Man(a1-6)]Man(b1-4)GlcNAc(b1-4)GlcNAc
# In short: as §1
# [5] = biological target: Gal(b1-4)GlcNAc(b1-2)[Gal(b1-4)GlcNAc(b1-4)]Man(a1-3)[GlcNAc(b1-4)][Gal(b1-4)GlcNAc(b1-2)[Gal(b1-4)GlcNAc(b1-6)]Man(a1-6)]Man(b1-4)GlcNAc(b1-4)GlcNAc
# In short: as §1
# [6] = biological target: Gal(b1-4)GlcNAc(b1-2)[Gal(b1-4)GlcNAc(b1-6)]Man(a1-6)[Gal(b1-4)GlcNAc(b1-2)Man(a1-3)]Man(b1-4)GlcNAc(b1-4)GlcNAc
# In short: as §1
# [7] = biological target: Gal(b1-4)GlcNAc(b1-2)[Gal(b1-4)GlcNAc(b1-6)]Man(a1-6)[Gal(b1-4)GlcNAc(b1-2)Man(a1-3)]Man(b1-4)GlcNAc(b1-4)[Fuc(a1-6)]GlcNAc
# In short: as §1
# [8] = biological target: Gal(b1-4)GlcNAc(b1-2)[Gal(b1-4)GlcNAc(b1-6)]Man(a1-6)[GlcNAc(b1-4)][Gal(b1-4)GlcNAc(b1-2)Man(a1-3)]Man(b1-4)GlcNAc(b1-4)GlcNAc
# In short: as §1
# [9] = biological target: Gal(b1-4)GlcNAc(b1-2)[Gal(b1-4)GlcNAc(b1-6)]Man(a1-6)[GlcNAc(b1-4)][Gal(b1-4)GlcNAc(b1-2)[Gal(b1-4)GlcNAc(b1-4)]Man(a1-3)]Man(b1-4)GlcNAc(b1-4)[Fuc(a1-6)]GlcNAc
# In short: as §1
# [10] = biological target: Gal(b1-4)GlcNAc(b1-3)Gal(b1-3)GalNAc
# In short: as §1
# [11] = biological target: Gal(b1-4)GlcNAc(b1-3)Gal(b1-3)GlcNAc
# In short: as §1
# [12] = biological target: Gal(b1-4)GlcNAc(b1-3)Gal(b1-4)Glc
# In short: as §1
# [13] = biological target: Gal(b1-4)GlcNAc(b1-3)Gal(b1-4)GlcNAc
# In short: as §1
# [14] = biological target: Gal(b1-4)GlcNAc(b1-3)Gal(b1-4)GlcNAc(b1-2)Man(a1-3)[Gal(b1-4)GlcNAc(b1-3)Gal(b1-4)GlcNAc(b1-2)Man(a1-6)]Man(b1-4)GlcNAc(b1-4)GlcNAc
# In short: as §1
# [15] = biological target: Gal(b1-4)GlcNAc(b1-3)Gal(b1-4)GlcNAc(b1-2)Man(a1-3)[Gal(b1-4)GlcNAc(b1-3)Gal(b1-4)GlcNAc(b1-2)Man(a1-6)]Man(b1-4)GlcNAc(b1-4)[Fuc(a1-6)]GlcNAc
# In short: as §1
# [16] = biological target: Gal(b1-4)GlcNAc(b1-3)Gal(b1-4)GlcNAc(b1-2)[Gal(b1-4)GlcNAc(b1-3)Gal(b1-4)GlcNAc(b1-6)]Man(a1-6)[Gal(b1-4)GlcNAc(b1-3)Gal(b1-4)GlcNAc(b1-2)Man(a1-3)]Man(b1-4)GlcNAc(b1-4)GlcNAc
# In short: as §1
# [17] = biological target: Gal(b1-4)GlcNAc(b1-3)Gal(b1-4)GlcNAc(b1-2)[Gal(b1-4)GlcNAc(b1-3)Gal(b1-4)GlcNAc(b1-6)]Man(a1-6)[Gal(b1-4)GlcNAc(b1-3)Gal(b1-4)GlcNAc(b1-2)Man(a1-3)]Man(b1-4)GlcNAc(b1-4)[Fuc(a1-6)]GlcNAc
# In short: as §1
# [18] = biological target: Gal(b1-4)GlcNAc(b1-3)Gal(b1-4)GlcNAc(b1-3)Gal(b1-4)GlcNAc
# In short: as §1
# [19] = biological target: Gal(b1-4)GlcNAc(b1-3)Gal(b1-4)GlcNAc(b1-3)Gal(b1-4)GlcNAc(b1-2)Man(a1-3)[Gal(b1-4)GlcNAc(b1-3)Gal(b1-4)GlcNAc(b1-3)Gal(b1-4)GlcNAc(b1-2)Man(a1-6)]Man(b1-4)GlcNAc(b1-4)GlcNAc
# In short: as §1
# [20] = biological target: Gal(b1-4)GlcNAc(b1-3)Gal(b1-4)GlcNAc(b1-3)Gal(b1-4)GlcNAc(b1-2)Man(a1-3)[Gal(b1-4)GlcNAc(b1-3)Gal(b1-4)GlcNAc(b1-3)Gal(b1-4)GlcNAc(b1-2)Man(a1-6)]Man(b1-4)GlcNAc(b1-4)[Fuc(a1-6)]GlcNAc
# In short: as §1
# [21] = biological target: Gal(b1-4)GlcNAc(b1-3)Gal(b1-4)GlcNAc(b1-3)Gal(b1-4)GlcNAc(b1-2)[Gal(b1-4)GlcNAc(b1-3)Gal(b1-4)GlcNAc(b1-3)Gal(b1-4)GlcNAc(b1-6)]Man(a1-6)[Gal(b1-4)GlcNAc(b1-3)Gal(b1-4)GlcNAc(b1-3)Gal(b1-4)GlcNAc(b1-2)Man(a1-3)]Man(b1-4)GlcNAc(b1-4)[Fuc(a1-6)]GlcNAc
# In short: as §1
# [22] = biological target: Gal(b1-4)GlcNAc(b1-3)Gal(b1-4)GlcNAc(b1-3)Gal(b1-4)GlcNAc(b1-3)Gal(b1-4)GlcNAc(b1-2)Man(a1-3)[Gal(b1-4)GlcNAc(b1-3)Gal(b1-4)GlcNAc(b1-3)Gal(b1-4)GlcNAc(b1-3)Gal(b1-4)GlcNAc(b1-2)Man(a1-6)]Man(b1-4)GlcNAc(b1-4)GlcNAc
# In short: as §1
binder,measurement,setting,value
"BabA (Helicobacter pylori), O52269_HELPY (protein) AEDDGFYMSAGYQIGEAAQMVKNTKGIQELSDNYENLSNLLTRYSTLNTLIKLSADPSAVNAARENLGASAKNLIGDTKNSPAYQAVLLAINAAVGFWNVVGYVTQCGGNANGQKSTSSTTIFNNEPGYRSTSITCSLNGHMPGYYGPMSIENFKKLNEAYQILQTALKNGLPALKENNGTVNVTYSYTCSGEGNDNCSLQTTGVTNQNNGTKTETQTIDGKSVTTTISSKVVDSQ",glycan array binding signal (z-score),[1],-0.172
same,glycan array binding signal (z-score),[2],-0.315
same,glycan array binding signal (z-score),[3],-0.482
same,glycan array binding signal (z-score),[4],-0.482
same,glycan array binding signal (z-score),[5],-0.364
same,glycan array binding signal (z-score),[6],-0.201
same,glycan array binding signal (z-score),[7],0.172
same,glycan array binding signal (z-score),[8],-0.546
same,glycan array binding signal (z-score),[9],-0.337
same,glycan array binding signal (z-score),[10],-0.736
same,glycan array binding signal (z-score),[11],-0.491
same,glycan array binding signal (z-score),[12],-0.535
same,glycan array binding signal (z-score),[13],-0.923
same,glycan array binding signal (z-score),[14],4.08
same,glycan array binding signal (z-score),[15],0.899
same,glycan array binding signal (z-score),[16],1.39
same,glycan array binding signal (z-score),[17],1.53
same,glycan array binding signal (z-score),[18],-1.02
same,glycan array binding signal (z-score),[19],4
same,glycan array binding signal (z-score),[20],2.03
same,glycan array binding signal (z-score),[21],2.31
same,glycan array binding signal (z-score),[22],1.26

# No new results follow: entries from further up.
binder,measurement,setting,value
"BabA (Helicobacter pylori), O52269_HELPY (protein) AEDDGFYMSAGYQIGEAAQMVKNTKGIQELSDNYENLSNLLTRYSTLNTLIKLSADPSAVNAARENLGASAKNLIGDTKNSPAYQAVLLAINAAVGFWNVVGYVTQCGGNANGQKSTSSTTIFNNEPGYRSTSITCSLNGHMPGYYGPMSIENFKKLNEAYQILQTALKNGLPALKENNGTVNVTYSYTCSGEGNDNCSLQTTGVTNQNNGTKTETQTIDGKSVTTTISSKVVDSQ",glycan array binding signal (z-score),[3],-0.482
same,glycan array binding signal (z-score),[4],-0.482
